Assay results as given in publication PMC10774274.
The exact form of at least one protein or probe is not confirmed.

Amino acid sequences for entries named in this document (tags omitted). A change or cut given only in a name is not applied to a line headed by its entry.
UniProt P09651: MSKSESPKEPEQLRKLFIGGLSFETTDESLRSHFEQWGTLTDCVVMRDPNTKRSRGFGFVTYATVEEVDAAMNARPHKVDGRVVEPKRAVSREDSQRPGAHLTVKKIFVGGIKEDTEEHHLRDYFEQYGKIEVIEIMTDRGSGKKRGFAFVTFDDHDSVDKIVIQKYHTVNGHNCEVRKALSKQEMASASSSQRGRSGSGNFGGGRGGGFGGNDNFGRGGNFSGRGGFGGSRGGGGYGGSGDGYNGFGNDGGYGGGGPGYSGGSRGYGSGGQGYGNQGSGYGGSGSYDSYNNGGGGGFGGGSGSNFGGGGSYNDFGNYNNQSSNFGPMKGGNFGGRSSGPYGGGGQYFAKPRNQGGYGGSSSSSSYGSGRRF

Biological target: MBP-hnRNP A1 WT (N-MBP-TEV-A1WT-C) (UniProt P09651)
Experiment: EMSA
Settings: 500 nM RNA, 0.04-5 ug protein; 2'-O-methyl on the 3'-terminal C; Label-free RNA EMSA: 500 nM RNA, 1X binding buffer (composition not given), 30 min at room temperature; 5% native TBE gel in 0.5X TBE, 60 V; protein stock in 150 mM NaCl; recombinant protein; protein details: N-terminal MBP with TEV site; label: none (SYBR Gold stain)

## GGCUCUGGAAGAAGACAUAGAAAACCAUGCAACAGAUGUGCACCAGGCAGUC [hMACF1 RNA]
  binding result: binds
